Reference: PMC10100927
Results are given in words; binding and its absence hold for the method and conditions named. In cells and extracts the contact can be indirect. Binding calls can cover weak binding; strength is not graded here. One block for each substance: values may come before it.

Protein sequences, listed by entry. Tags and fused reporters are not part of them. Lines headed by an entry give the natural chain unless they say otherwise; changes in a name come on top.
UniProt A8BVT7: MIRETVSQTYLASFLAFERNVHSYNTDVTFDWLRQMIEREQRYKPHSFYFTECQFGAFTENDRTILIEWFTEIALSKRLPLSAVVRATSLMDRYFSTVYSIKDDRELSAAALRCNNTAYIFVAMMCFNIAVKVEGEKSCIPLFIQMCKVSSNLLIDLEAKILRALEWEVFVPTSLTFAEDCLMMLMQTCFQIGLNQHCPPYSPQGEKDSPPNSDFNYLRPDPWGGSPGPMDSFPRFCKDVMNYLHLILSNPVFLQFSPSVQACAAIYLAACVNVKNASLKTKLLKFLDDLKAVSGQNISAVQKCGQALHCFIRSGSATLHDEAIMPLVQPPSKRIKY
UniProt A8B940: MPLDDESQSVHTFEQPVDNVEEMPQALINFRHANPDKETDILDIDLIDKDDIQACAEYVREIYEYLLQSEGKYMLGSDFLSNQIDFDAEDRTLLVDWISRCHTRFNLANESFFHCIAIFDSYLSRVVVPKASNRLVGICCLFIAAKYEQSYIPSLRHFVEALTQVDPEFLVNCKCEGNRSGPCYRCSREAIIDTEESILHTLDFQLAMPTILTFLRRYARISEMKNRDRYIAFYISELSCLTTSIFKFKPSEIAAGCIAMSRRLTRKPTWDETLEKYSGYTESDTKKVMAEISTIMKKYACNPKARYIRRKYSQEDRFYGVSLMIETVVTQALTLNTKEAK
UniProt A8BZ95: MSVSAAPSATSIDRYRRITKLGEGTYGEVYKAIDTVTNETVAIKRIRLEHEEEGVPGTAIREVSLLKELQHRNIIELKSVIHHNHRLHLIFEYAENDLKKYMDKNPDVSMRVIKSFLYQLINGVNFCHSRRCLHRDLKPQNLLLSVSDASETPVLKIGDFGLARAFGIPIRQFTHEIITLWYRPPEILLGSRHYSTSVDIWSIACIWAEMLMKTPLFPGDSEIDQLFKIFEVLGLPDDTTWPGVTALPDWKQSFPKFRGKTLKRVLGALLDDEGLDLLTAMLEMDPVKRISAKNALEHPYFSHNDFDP
UniProt A8B2A9: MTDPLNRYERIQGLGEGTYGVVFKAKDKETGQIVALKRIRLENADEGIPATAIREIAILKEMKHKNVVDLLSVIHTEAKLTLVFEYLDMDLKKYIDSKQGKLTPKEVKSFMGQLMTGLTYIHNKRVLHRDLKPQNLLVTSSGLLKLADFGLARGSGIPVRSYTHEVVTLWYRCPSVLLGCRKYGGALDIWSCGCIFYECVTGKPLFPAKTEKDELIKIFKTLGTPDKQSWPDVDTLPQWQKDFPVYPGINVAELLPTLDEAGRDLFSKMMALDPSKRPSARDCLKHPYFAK
UniProt A0A644EZR6: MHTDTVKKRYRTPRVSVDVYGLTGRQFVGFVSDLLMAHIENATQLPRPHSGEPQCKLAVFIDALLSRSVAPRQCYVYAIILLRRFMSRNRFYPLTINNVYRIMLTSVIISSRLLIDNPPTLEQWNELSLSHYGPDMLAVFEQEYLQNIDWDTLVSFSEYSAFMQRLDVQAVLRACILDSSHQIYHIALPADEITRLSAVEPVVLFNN
UniProt A0A644F7W3: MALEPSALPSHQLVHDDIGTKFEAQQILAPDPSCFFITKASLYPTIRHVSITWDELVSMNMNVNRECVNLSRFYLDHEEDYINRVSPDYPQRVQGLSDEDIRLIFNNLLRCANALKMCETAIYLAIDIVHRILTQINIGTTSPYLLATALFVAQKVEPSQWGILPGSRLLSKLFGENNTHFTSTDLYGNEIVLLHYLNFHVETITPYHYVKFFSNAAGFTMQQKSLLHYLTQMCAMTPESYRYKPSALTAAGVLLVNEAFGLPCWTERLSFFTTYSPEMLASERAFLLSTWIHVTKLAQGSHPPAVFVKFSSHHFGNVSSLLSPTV
UniProt A0A644F0E8: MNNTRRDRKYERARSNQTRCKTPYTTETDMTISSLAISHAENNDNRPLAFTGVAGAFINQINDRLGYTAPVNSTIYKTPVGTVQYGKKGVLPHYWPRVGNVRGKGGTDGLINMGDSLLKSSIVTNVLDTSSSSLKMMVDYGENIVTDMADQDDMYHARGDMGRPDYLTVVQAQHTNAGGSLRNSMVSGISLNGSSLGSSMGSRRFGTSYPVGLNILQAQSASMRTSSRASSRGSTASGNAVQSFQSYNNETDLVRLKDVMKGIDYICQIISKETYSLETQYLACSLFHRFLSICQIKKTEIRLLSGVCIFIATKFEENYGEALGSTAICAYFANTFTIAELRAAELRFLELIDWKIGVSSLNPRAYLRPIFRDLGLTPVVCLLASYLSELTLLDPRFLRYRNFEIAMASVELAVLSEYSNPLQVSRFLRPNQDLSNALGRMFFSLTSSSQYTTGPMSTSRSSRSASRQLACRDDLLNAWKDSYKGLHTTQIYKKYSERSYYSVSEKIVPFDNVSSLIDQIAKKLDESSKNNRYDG

Assays:
[1] = biological target: Myc-tagged Glcyclin 14488 (Giardia lamblia); assay: co-IP; lysates of Giardia co-expressing an HA-tagged GlCDK and a Myc-tagged Glcyclin, precleared with protein A/G agarose, precipitated with anti-Myc antibodies at 4°C overnight; lysis buffer 10 mM Tris-HCl, 5 mM EDTA, 130 mM NaCl, 1% Triton X-100, pH 7.4; Western blot with anti-HA or anti-Myc; normal mouse IgG as control
[2] = biological target: Myc-tagged Glcyclin 17505 (Giardia lamblia); assay: as above
[3] = biological target: Myc-tagged Glcyclin 22394 (Giardia lamblia) (UniProt A8BVT7); assay: as above
[4] = biological target: Myc-tagged Glcyclin 3977 (Giardia lamblia) (UniProt A8B940); assay: as above
[5] = biological target: Myc-tagged Glcyclin 6584 (Giardia lamblia); assay: as above
[6] = biological target: HA-tagged Giardia lamblia CDK1 (Giardia lamblia) (UniProt A8BZ95); assay: co-IP; lysates of Giardia co-expressing an HA-tagged GlCDK and a Myc-tagged Glcyclin, precleared with protein A/G agarose, precipitated with anti-HA agarose beads at 4°C overnight; lysis buffer 10 mM Tris-HCl, 5 mM EDTA, 130 mM NaCl, 1% Triton X-100, pH 7.4; Western blot with anti-HA or anti-Myc; normal mouse IgG as control
[7] = biological target: HA-tagged Giardia lamblia CDK2 (Giardia lamblia) (UniProt A8B2A9); assay: as above

- binding [1]: binds
- binding [2]: binds
- binding [3]: no binding
- binding [4]: binds
- binding [5]: no binding
Substance: HA-tagged Giardia lamblia CDK1 (from UniProt A8BZ95) (enzyme)

- binding [1]: no binding
- binding [2]: no binding
- binding [3]: binds
- binding [4]: binds
- binding [5]: binds
Substance: HA-tagged Giardia lamblia CDK2 (from UniProt A8B2A9) (enzyme)

- binding [6]: binds
- binding [7]: binds
Substance: Myc-tagged Glcyclin 3977 (from UniProt A8B940)

- binding [7]: binds
Substance: Myc-tagged Glcyclin 6584 (from UniProt A0A644EZR6)

- binding [6]: binds
Substance: Myc-tagged Glcyclin 14488 (from UniProt A0A644F7W3)

- binding [6]: binds
Substance: Myc-tagged Glcyclin 17505 (from UniProt A0A644F0E8)

- binding [7]: binds
Substance: Myc-tagged Glcyclin 22394 (from UniProt A8BVT7)
